Data from PubChem BioAssay AID588497 (NMMLSC, 2011).
About 780 (0.22%) of roughly 360,000 compounds were called active. Inconclusive means that the source gave no clear call. Such entries were picked first, then a sample of the others. Rule as the data show it: active = inhibition above about 35% (passing the limit was not always enough); inconclusive = no clear call, values can overlap the other calls.

Each compound was assayed on Botulinum neurotoxin type F light chain protease (Clostridium botulinum) (assay: BoNT/F light chain protease inhibitors, primary screen, biochemical, flow cytometry, MLPCN library (AID 588497; also: plate controls were buffer without enzyme for full effect and enzyme alone for no effect)). Conditions: Multiplex microsphere protease cleavage assay, at 10 µM, stronger effect = higher value.

| SMILES | inhibition |
| --- | --- |
| CC(=O)c1csc(COc2ccccc2)n1 | inconclusive: 47.7% |
| COc1cc(C(=O)NCc2ccc(C(=O)NCC(OC)OC)cc2)cc(OC)c1OC | inactive: -3.7% |
| COc1ccc(C2CC(=O)C(C=NCCO)=C(O)C2)cc1 (stereo not given) | inconclusive: -184% |
| CNC(=O)c1ccccc1NC(=O)C1CC(=O)N(C(C)C)C1 (stereo not given) | inconclusive: 25.2% |
| CCC(=O)NC(O)C(=O)c1ccc(C)cc1 (stereo not given) | inconclusive: -36.1% |
| Cc1ccc(S(=O)(=O)c2ncccc2[N+](=O)[O-])cc1 | inconclusive: -36.6% |
| CCCCC1(C)NC(=O)N(CC(=O)Nc2ccc(Cl)cc2C)C1=O (stereo not given) | inactive: 7% |
| O=C(Nc1ccc(Cl)cc1C(=O)NCCN1CCOCC1)c1ccc(Cl)cc1Cl | inactive: -5.9% |
| O=C(O)c1ccc(Oc2ccc(S(=O)(=O)c3ccc(C(=O)O)c(C(=O)O)c3)cc2)cc1 | inconclusive: 12% |
| CC(C)(C)c1ccc(C(=O)NCC(=O)NCC(C)(C)N2CCOCC2)cc1 | inactive: -3% |
| CC(C)(C)C(=O)NC(=S)Nc1ccc(Cc2ccncc2)cc1 | inconclusive: -24.1% |
| C=CCSc1nsc(NC(=O)Nc2ccc(F)cc2)n1 | inconclusive: 25.5% |
| Cc1cnc(NS(=O)(=O)c2ccc(Cl)cc2)c(Br)c1 | inconclusive: 51.7% |
| CN(C)[C@H]1N(C(=O)c2ccc(Br)cc2)N=C2c3ccccc3S(=O)(=O)N21 | inactive: 0.5% |
| CCOc1cc(/C=N/NC(=O)c2cc(-c3ccccc3)nc3ccccc23)ccc1O | inconclusive: 29.3% |
| COc1ccc(Cl)c2sc(N(CCN(C)C)C(=O)CCS(=O)(=O)c3ccc(C)cc3)nc12 | inconclusive: -1.2% |
| O=[N+]([O-])c1ccccc1OCCCOc1cccc2cccnc12 | inconclusive: -4% |
| Cn1c(CNC(=O)c2ccc(Cl)cc2)nnc1SCC(=O)Nc1sc2c(c1C#N)CCCC2 | inactive: -3.6% |
| Cc1ccccc1CCNC(=O)C1CC(O)CN1C(=O)Nc1ccccc1 (stereo not given) | inconclusive: -17.6% |
| Cc1nc(-c2ccc(S(=O)(=O)Nc3cccc(S(N)(=O)=O)c3)s2)cs1 | inconclusive: 2.8% |
| Cc1cc([N+](=O)[O-])nn1CC(=O)NCc1ccccc1 | inconclusive: -27.3% |
| COc1ccc2[nH]c(C(=O)Nc3ccc4c(c3)OCO4)cc2c1 | inactive: -9.5% |
| COc1ccc(C(=O)Nc2nnc(CCc3ccccc3)s2)c(OC)c1 | inconclusive: 3% |

In the list so far, 2 contain bromine:

| SMILES | inhibition |
| --- | --- |
| Cc1cnc(NS(=O)(=O)c2ccc(Cl)cc2)c(Br)c1 | inconclusive: 51.7% |
| CN(C)[C@H]1N(C(=O)c2ccc(Br)cc2)N=C2c3ccccc3S(=O)(=O)N21 | inactive: 0.5% |

(next part)

| SMILES | inhibition |
| --- | --- |
| O=S(=O)(NCCS(=O)(=O)N1CCN(c2ccccc2)CC1)c1ccc(F)cc1 | inconclusive: -6.8% |
| C/C(=N/Nc1ccccc1C(=O)O)c1cccs1 | inconclusive: -22.7% |
| CCn1c(SCC(=O)NCCc2ccccc2)nc2sc3c(c2c1=O)CCN(C)C3 | inconclusive: -244% |
| Cc1ccsc1C(=O)OCC(=O)N1CCOCC1 | inconclusive: -30.9% |
| O=C(CCC(=O)Nc1cccc(C(F)(F)F)c1)NCC1CCCO1 (stereo not given) | inconclusive: -39.8% |
| COCc1cc(=O)c2ccccc2o1 | inactive: -0.8% |
| CC1CCCCC12NC(=O)N(CC(=O)N1CCN(c3ccccc3)CC1)C2=O (stereo not given) | inconclusive: 7.8% |
| C=CCc1cc(Cl)ccc1OCCN1CC(C)OC(C)C1 (stereo not given) | inactive: -0.2% |
| CCn1c(SCc2ccccc2)nc2c1c(=O)[nH]c(=O)n2C | inconclusive: -48.3% |
| CCOc1ccc(NCCC(O)c2ccc(F)cc2)cc1 (stereo not given) | inconclusive: -7.3% |
| CN(Cc1ccccc1)CC1CCCN(CCc2ccccc2F)C1 (stereo not given) | inconclusive: 12.7% |
| CCN(CC)C(=O)Cc1c(O)c2ccccc2[nH]c1=O | inactive: 5.9% |
| Cc1cc(C)cc(OCC(=O)NNC(=S)NC(=O)C2CC2)c1 | inactive: -8.8% |
| CC(=O)CSc1nc2c(c(=O)[nH]c(=O)n2C)n1CCCc1ccccc1 | inconclusive: -26.6% |
| COc1ccc(-n2c(SCC(=O)Nc3ccccc3)nc(O)cc2=O)cc1 | inconclusive: -103% |
| CN1CC(C#N)C2(O)c3ccccc3CCC2C1 (stereo not given) | inconclusive: -7.6% |
| O=C1c2cccc3cccc(c23)C(=O)N1CCCn1ccnc1 | inconclusive: -9.5% |
| Cc1ccc(CSc2nnc(C(F)(F)F)n2Cc2ccc(F)cc2)cc1 | inactive: 7.1% |
| Cc1cc(C(=O)NNS(=O)(=O)c2ccc(F)cc2)nn1C(C)(C)C | inconclusive: -28% |
| C=CCn1c(Sc2ncc([N+](=O)[O-])s2)n[nH]c1=O | inconclusive: -9.2% |
| CC(=O)c1ccccc1NC(=O)COC(=O)/C=C/c1ccc(OC(F)F)cc1 | inconclusive: 28.3% |
| COc1ccc2cc(S(=O)(=O)c3ccccc3)c(=O)oc2c1 | inactive: -0.9% |
| COCCCN(Cc1cc(OC)c(OC)c(OC)c1)C(=S)Nc1cccc(SC)c1 | inactive: -2.3% |

Fetched one by one from the entries so far:

| SMILES | inhibition |
| --- | --- |
| Cc1nc(-c2ccc(S(=O)(=O)Nc3cccc(S(N)(=O)=O)c3)s2)cs1 | inconclusive: 2.8% |
| CCn1c(SCC(=O)NCCc2ccccc2)nc2sc3c(c2c1=O)CCN(C)C3 | inconclusive: -244% |
| O=C1c2cccc3cccc(c23)C(=O)N1CCCn1ccnc1 | inconclusive: -9.5% |

Next records:

| SMILES | inhibition |
| --- | --- |
| CN(C)c1ccc(/C=C2\SC(=S)N(Nc3ncc(C(F)(F)F)cc3Cl)C2=O)cc1 | inactive: 13.9% |
| O=C(Cn1c(=O)oc2cccnc21)Nc1ccc(C(F)(F)F)cc1 | inconclusive: -31.9% |
| O=C(COC(=O)[C@@H]1CC(O)CN1S(=O)(=O)c1ccc(Cl)cc1)NC(=O)NCc1ccccc1 (stereo not given in full) | inactive: 12.1% |
| CCOC(=O)c1ccc(NC(=O)CSC2=NN3CCCC(=O)N=C3S2)cc1 | inactive: 1% |
| CC1(C)CC(=O)C(C2C3=C(CC(C)(C)CC3=O)OC3=C2C(=O)CC(C)(C)C3)=C(O)C1 | inconclusive: -21.7% |
| Cn1c(CN2CCCCC2)nc2cc(NC(=O)c3ccccc3)ccc21 | inactive: 1.2% |
| CNc1cncc(-c2ccc(CN(C)C)cc2)n1 | inactive: -1.1% |
| Cc1ccc(NC(=S)NCC(O)c2ccccc2)c(C)c1 (stereo not given) | inconclusive: -41.4% |
| Cc1nc(-c2ccc(S(=O)(=O)N3CCN(C(c4ccccc4)c4ccccc4)CC3)s2)cs1 | inconclusive: 11.9% |
| CCOCCCn1c(SCC(=O)Nc2ccccc2OC)nc2ccccc2c1=O | inconclusive: 12% |
| Cc1c(CC(=O)Nc2ccc(Cl)cc2)sc2ccc(Cl)cc12 | inconclusive: 113% |
| CC(NC=O)c1nc2ccccc2n1CCc1ccccc1 (stereo not given) | inconclusive: 26.4% |
| CC(C)(C)OC(=O)N/N=C/c1cccn1-c1ccc([N+](=O)[O-])cc1 | inconclusive: -20.8% |
| COc1ccc(NC(=O)C(CC(=O)O)Cc2ccc(Br)cc2)cc1 (stereo not given) | inconclusive: -23.6% |
| Cc1cc(S(=O)(=O)Nc2nc(CN3CCOCC3)nc3sc4c(c23)CCCC4)ccc1F | inconclusive: 4.7% |
| c1ccc(COc2cccc(CN3CCc4ccccc4C3)c2)cc1 | inactive: 0.5% |
| Cc1sc2nc(CN(C(=O)c3cccs3)C3CCCC3)[nH]c(=O)c2c1C | inconclusive: 6.7% |
| CC1=NNC(=O)C1C(c1ccc(Cl)cc1)C(C#N)C#N (stereo not given) | inconclusive: -73.2% |
| CCCCn1c(O)c(C(C)=NCc2ccc3c(c2)OCO3)c(=O)[nH]c1=O | inconclusive: -98.8% |
| Cc1ccc(S(=O)(=O)NCc2ccccc2)cc1C(=O)NC1CCC(C)CC1 (stereo not given) | inconclusive: -8.7% |
| CCCOc1ccc(-c2nn(-c3ccccc3)cc2/C=C2\SC(=S)N(C3CCS(=O)(=O)C3)C2=O)cc1 (stereo not given) | active: 40.2% |
| CCC(C)c1ccccc1N1CC(C(=O)N2CCN(S(=O)(=O)c3ccccc3Br)CC2)CC1=O (stereo not given) | inconclusive: 15.7% |
| COCCN(C(=O)c1ccccc1)c1nnc(-c2cccnc2)s1 | active: 35.5% |

| SMILES | inhibition |
| --- | --- |
| Cc1ccc(NC(=O)C2CC2c2ccccc2)cc1 (stereo not given) | inconclusive: -13.5% |
| CN(Cc1cccc([N+](=O)[O-])c1)Cc1cccc2ccccc12 | inconclusive: -41.4% |
| COC(=O)c1c(NC(=O)C2CC=CCC2C(=O)O)sc(C)c1C (stereo not given) | inactive: 0.8% |
| O=S(=O)(c1ccccc1)c1nc(-c2ccco2)oc1NCCCN1CCOCC1 | inactive: 16.2% |
| CCC(=O)c1ccc(N2CCN(C(=O)Cc3ccccc3)CC2)c(F)c1 | inconclusive: -12.7% |
| Cc1nc2sc(C(=O)OCC(=O)N3c4ccccc4CC3C)c(C)c2c(=O)[nH]1 (stereo not given) | inactive: 7.4% |
| CN(C)S(=O)(=O)c1cccc(C(=O)Nc2cc3c(cc2C(=O)O)OCCCO3)c1 | inactive: 24.1% |
| NS(=O)(=O)c1cccc(NC(=O)c2cccc3c(Br)cccc23)c1 | inconclusive: 24.9% |
| Cc1ccccc1OCc1nnc(SCC(=O)Nc2ccc3nc(SCC(=O)Nc4ccccc4)sc3c2)n1C | inactive: -7.6% |
| Cc1cc(C)cc(NC(=O)CS(=O)(=O)c2ccccc2)c1 | inconclusive: 46.2% |
| CCC1(OC(=O)CN(C)C)C(=O)OCc2c1cc1n(c2=O)Cc2cc3c(N)cccc3nc2-1 (stereo not given) | inactive: -5.4% |
| CCCc1cc(C(=O)N2CCN(C(c3ccccc3)c3ccccc3)CC2)no1 | inactive: 1.4% |
| CCc1ccccc1NS(=O)(=O)c1ccc2[nH]cc(C(=O)NCc3ccco3)c(=O)c2c1 | inconclusive: -39.9% |
| O=C(CN1C(=O)NC2(CCCCC2)C1=O)N1CCN(c2ncccn2)CC1 | inconclusive: -1.5% |
| COCCNC(=O)CN(C(=O)CCC(=O)Nc1ccccn1)c1ccccc1OC | inconclusive: 7.9% |
| CC(=O)Oc1ccc2nc(/C=C/c3ccccc3)oc(=O)c2c1 | inconclusive: 14.4% |
| Cc1ccc2cc(NC(=O)c3cccc(F)c3)ccc2n1 | inconclusive: -46.7% |
| CCOC(=O)c1cc(-c2csc(-c3ccc(C(F)(F)F)cc3)n2)on1 | inconclusive: 34.3% |
| CC(C)n1c(NCc2ccccc2O)nc2ccccc21 | active: 48.7% |
| N#CC1CN(Cc2ccccc2)CN(Cc2ccccc2)C1 | inconclusive: 112% |
| O=C(Nc1ccc(C(F)(F)F)cc1)c1cccn(Cc2ccc3c(c2)OC(F)(F)O3)c1=O | inactive: -3.9% |
